Measured values published in PMC12000511, “Molecular basis for the assembly of the Vps5-Vps17 SNX-BAR proteins with Retromer” (Nature Communications, 2025).
These are yes or no findings as the source states them, for the method shown. Some entries that bind do so weakly or less than the wild type.

Molecular target: T1, scVps5 (S. cerevisiae) (UniProt Q92331)
T1 sequence: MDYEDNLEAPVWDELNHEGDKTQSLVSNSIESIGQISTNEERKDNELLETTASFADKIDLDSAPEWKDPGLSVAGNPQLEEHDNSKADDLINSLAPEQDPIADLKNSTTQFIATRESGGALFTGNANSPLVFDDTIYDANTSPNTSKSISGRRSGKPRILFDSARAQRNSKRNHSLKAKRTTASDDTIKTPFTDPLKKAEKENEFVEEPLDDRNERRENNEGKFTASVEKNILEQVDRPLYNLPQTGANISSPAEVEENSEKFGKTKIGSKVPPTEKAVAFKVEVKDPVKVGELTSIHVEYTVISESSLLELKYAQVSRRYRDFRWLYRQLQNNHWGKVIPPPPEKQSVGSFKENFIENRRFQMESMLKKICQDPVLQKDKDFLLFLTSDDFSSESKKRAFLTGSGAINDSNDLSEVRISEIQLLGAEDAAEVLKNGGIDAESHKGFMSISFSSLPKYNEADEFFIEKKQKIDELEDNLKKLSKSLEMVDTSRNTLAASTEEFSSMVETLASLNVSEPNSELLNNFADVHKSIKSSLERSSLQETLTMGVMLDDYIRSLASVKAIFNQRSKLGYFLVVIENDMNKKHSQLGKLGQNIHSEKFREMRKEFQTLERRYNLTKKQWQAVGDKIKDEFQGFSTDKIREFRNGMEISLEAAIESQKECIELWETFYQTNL
Assay: co-purification (TAP tag); TAP-tagged scSNX-BAR complex extracted from yeast on IgG beads, TEV cleavage, 50 mM Tris pH 8.0, 300 mM NaCl, 1 mM MgCl2

binding: binds
B1: scVps17 (protein, UniProt P32913 1-551)
chain: MTSAVPYDPYDDLDNNPFAEPQEEDSEPAATTTDGSSSMSEERVGTEQTAASVQDNGTANNIQNGLGEEGNATRSKTSNEHNENQQPSQPSERVILPERSDEKKKYTLLAKVTGLERFGSATGKKENPTIIFDCSTNLPTFRKQQYKNVKKSYEEFHQLFKYLNVAIQESFVPTLPSAYTTFGINSEEDRMKVTRNFQLWFNRLSQDPLIIRNEEVAFFIESDFNTYTPINKSKSLASGLKRKTLKQLAPPYDEITELAEFRPLVKSIYVVSQSLQEKLLRVSRNRKMMVQEENAFGQDFVNLDEHNKLYRRYGKILTAVGDIDSIIATMDMATLYDGLEWIVRDAYAVKEALTNRHFIMRNLVQAQQNSKAKQEQARRFRSRRDINPMKIDEALRQLKAAAKNEQVLTLKLQRITSNMIIERKQWISWYEEWIRSSIKEFTLRKIEYERKKLTLLERVRSDIRKADENGGLSRLGRHAVSNNNSDTSQTLKGDSWTGESNRKSQIPINKIAHTEFDDELFTEDDGYNSQDSDTTSLNARHAASLLGMSTK
